HELM strings list residues between dots; [ac] is acetyl, [am] amide, other brackets name non-standard units.
Assay: general procedure: Fmoc solid-phase peptide synthesis; 2-chlorotrityl resin; HCTU/NMM (chain assembly); HBTU/DIPEA (C60 conjugation)
[1] = whole synthesis, total peptide synthesis, scale of the general procedure 500 mg resin

Substance	difficulty met (conjugation step)	isolated mass (whole synthesis) [mg]	isolated yield [1] [%]	crude mass (whole synthesis)	crude yield (whole synthesis, crude yield, total peptide synthesis, scale of the general procedure 500 mg resin) [%]
PEPTIDE1{[C60pyrGlt].[GABA].E.E.E.E.E}|PEPTIDE2{[GABA].E.E.E.E.E}$PEPTIDE1,PEPTIDE2,1:R3-1:R1$$$V2.0	could not be isolated by HPLC, especially in the presence of an oligo-Glu impurity	12.6	36	–	–
PEPTIDE1{[C60pyrGlt].[GABA].K.K.K.K.K}|PEPTIDE2{[GABA].K.K.K.K.K}$PEPTIDE1,PEPTIDE2,1:R3-1:R1$$$V2.0	–	11.2	32	–	–
PEPTIDE1{[C60pyrGlt].[GABA].R.R.R.R.R}|PEPTIDE2{[GABA].R.R.R.R.R}$PEPTIDE1,PEPTIDE2,1:R3-1:R1$$$V2.0	–	–	–	crude 37.2 mg	66
